# Results are given in words; binding and its absence hold for the method and conditions named. In cells and extracts the contact can be indirect. Some results given as binding are weak or reduced against the parent protein; the word gives no strength. Tags and fused reporters may be left off the sequences shown.
# The chains behind the UniProt entries cited, without tags or fusion partners. Residues count along the entry.
# UniProt Q8WUM4, residues 1-202: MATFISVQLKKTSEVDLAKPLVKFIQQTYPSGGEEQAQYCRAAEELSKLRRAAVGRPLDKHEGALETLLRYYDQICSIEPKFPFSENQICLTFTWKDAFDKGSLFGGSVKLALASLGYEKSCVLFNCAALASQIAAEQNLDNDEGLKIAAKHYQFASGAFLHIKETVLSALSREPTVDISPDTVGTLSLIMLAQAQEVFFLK
# Target: HA-Broi (first 202 residues of the Bro1 domain of Alix) (human) (UniProt Q8WUM4)
# Test: co-IP; 293T cells co-transfected with HA-Alix or Alix fragments and FLAG-tagged CHMP4A, CHMP4B, CHMP4C or MAP/RabGAPLP; RIPA lysate; anti-HA antibody-conjugated beads; blot with anti-HA and anti-Flag
row,Binder,binding
1,"FLAG-MAP/RabGAPLP (protein, UniProt Q96HU1-1 1-749) MSGSHTPACGPFSALTPSIWPQEILAKYTQKEESAEQPEFYYDEFGFRVYKEEGDEPGSSLLANSPLMEDAPQRLRWQAHLEFTHNHDVGDLTWDKIAVSLPRSEKLRSLVLAGIPHGMRPQLWMRLSGALQKKRNSELSYREIVKNSSNDETIAAKQIEKDLLRTMPSNACFASMGSIGVPRLRRVLRALAWLYPEIGYCQGTGMVAACLLLFLEEEDAFWMMSAIIEDLLPASYFSTTLLGVQTDQRVLRHLIVQYLPRLDKLLQEHDIELSLITLHWFLTAFASVVDIKLLLRIWDLFFYEGSRVLFQLTLGMLHLKEEELIQSENSASIFNTLSDIPSQMEDAELLLGVAMRLAGSLTDVAVETQRRKHLAYLIADQGQLLGAGTLTNLSQVVRRRTQRRKSTITALLFGEDDLEALKAKNIKQTELVADLREAILRVARHFQCTDPKNCSVELTPDYSMESHQRDHENYVACSRSHRRRAKALLDFERHDDDELGFRKNDIITIVSQKDEHCWVGELNGLRGWFPAKFVEVLDERSKEYSIAGDDSVTEGVTDLVRGTLCPALKALFEHGLKKPSLLGGACHPWLFIEEAAGREVERDFASVYSRLVLCKTFRLDEDGKVLTPEELLYRAVQSVNVTHDAVHAQMDVKLRSLICVGLNEQVLHLWLEVLCSSLPTVEKWYQPWSFLRSPGWVQIKCELRVLCCFAFSLSQDWELPAKREAQQPLKEGVRDMLVKHHLFSWDVDG",binds
2,"FLAG-CHMP4A (protein, UniProt Q9BY43 1-222) MSGLGRLFGKGKKEKGPTPEEAIQKLKETEKILIKKQEFLEQKIQQELQTAKKYGTKNKRAALQALRRKKRFEQQLAQTDGTLSTLEFQREAIENATTNAEVLRTMELAAQSMKKAYQDMDIDKVDELMTDITEQQEVAQQISDAISRPMGFGDDVDEDELLEELEELEQEELAQELLNVGDKEEEPSVKLPSVPSTHLPAGPAPKVDEDEEALKQLAEWVS",no binding
3,"FLAG-CHMP4B (protein, UniProt Q9H444 1-224) MSVFGKLFGAGGGKAGKGGPTPQEAIQRLRDTEEMLSKKQEFLEKKIEQELTAAKKHGTKNKRAALQALKRKKRYEKQLAQIDGTLSTIEFQREALENANTNTEVLKNMGYAAKAMKAAHDNMDIDKVDELMQDIADQQELAEEISTAISKPVGFGEEFDEDELMAELEELEQEELDKNLLEISGPETVPLPNVPSIALPSKPAKKKEEEDDDMKELENWAGSM",no binding
4,"FLAG-CHMP4C (protein, UniProt Q96CF2 1-233) MSKLGKFFKGGGSSKSRAAPSPQEALVRLRETEEMLGKKQEYLENRIQREIALAKKHGTQNKRAALQALKRKKRFEKQLTQIDGTLSTIEFQREALENSHTNTEVLRNMGFAAKAMKSVHENMDLNKIDDLMQEITEQQDIAQEISEAFSQRVGFGDDFDEDELMAELEELEQEELNKKMTNIRLPNVPSSSLPAQPNRKPGMSSTARRSRAASSQRAEEEDDDIKQLAAWAT",no binding

# — article PMC2651531
